Measured data: PubChem BioAssay AID652243 (Drosophila RNAi Screening Center, 2013)

Assay: 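Fly genes required for human androgen receptor driven transcription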 (primary screen)
Cell system: Drosophila S2R+ cells
Knock-down reagent: long dsRNA against Drosophila genes
Timing: 72 h (48 h, then 24 h hormone)
Treatment: synthetic androgen R1881 at 10 nM for 24 h
Measured: 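Firefly light from an androgen-responsive reporter and Renilla control light per well, raw and unnormalised, for each of two replicates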
Direction: firefly reporter light: higher = more light from androgen-responsive reporter; Renilla control light: higher = more constitutive control signal (cell number, transfection)
Active means: 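Hit when the log firefly-to-Renilla ratio dropped or increased by a fixed fold versus the mean of GFP or LacZ controls across duplicate plates; lowering cut given as 1.5 and as 3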
Meaning of the calls: active = hit: reporter lowered or raised; inactive = no hit
The screen tested about 24,000 reagents; this is an unselected part of those that have a named target and a result. In the full data, 246 (1%) got an active call. 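Plates not normalised; calls are printed but the firefly/Renilla ratio behind them is not deposited; fold cut for lowering reported inconsistently.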 Raw values are not corrected between plates. Reagents against one gene are numbered here. Names joined by + are all predicted targets of the reagent. Not given: the amount of reagent.

no.	gene	reagent	firefly reporter light, replicate 1	firefly reporter light, replicate 2	Renilla control light, replicate 1	Renilla control light, replicate 2	call
1	CG32755 (GeneID 318192)	1	3.39e5	5.05e5	3.19e6	3.21e6	inactive
2	CG32755 (GeneID 318192)	2	2.50e5	2.33e5	4.62e5	7.56e5	inactive
3	CG3703 (GeneID 31045)	1	2.98e5	3.16e5	4.62e6	3.58e6	inactive
4	CG3703 (GeneID 31045)	2	3.64e5	4.95e5	5.22e6	2.95e6	inactive
5	CG3703 (GeneID 31045)	3	1.54e5	1.63e5	3.49e6	1.99e6	inactive
6	Bx (GeneID 32846)	1	5.72e5	4.74e5	3.99e6	3.56e6	inactive
7	Bx (GeneID 32846)	2	3.64e5	5.84e5	8.65e5	1.17e6	inactive
8	Bx (GeneID 32846)	3	3.74e5	5.55e5	8.70e5	1.44e6	inactive
9	CG31195 (GeneID 46155)	1	96107	85207	1.63e5	2.11e5	inactive
10	CG5758 (GeneID 35083)	1	1.46e5	1.00e5	1.63e6	1.37e6	inactive
11	CG5758 (GeneID 35083)	2	1.66e5	2.24e5	1.63e6	1.94e6	inactive
12	CG5758 (GeneID 35083)	3	5.72e5	5.56e5	8.92e5	8.92e5	inactive
13	CG14810 (GeneID 31131)	1	4.85e5	6.74e5	6.14e5	4.37e5	inactive
14	CG14810 (GeneID 31131)	2	4.03e5	4.99e5	3.85e6	3.62e6	inactive
15	CG14810 (GeneID 31131)	3	9.37e5	1.28e6	5.45e5	7.88e5	inactive
16	Trpml + CG42638	1	25094	30691	3.34e5	2.88e5	inactive
17	asRNA:CR17025 (GeneID 12797896)	1	4.51e5	4.47e5	1.41e6	1.25e6	inactive
18	Vang (GeneID 35922)	1	1.68e5	1.75e5	1.54e6	1.87e6	inactive
19	CG14983 (GeneID 38466)	1	1.29e5	1.03e5	1.61e6	1.82e6	inactive
20	CG14983 (GeneID 38466)	2	2.35e5	2.63e5	5.88e5	6.46e5	inactive
21	Rab3-GAP (GeneID 34626)	1	6.25e5	7.83e5	2.61e6	2.42e6	inactive
22	Rab3-GAP (GeneID 34626)	2	5.47e5	4.78e5	1.05e6	1.19e6	inactive
23	CG30020 (GeneID 36156)	1	2.34e5	2.79e5	2.52e6	3.44e6	inactive
24	CG30020 (GeneID 36156)	2	3.11e5	2.64e5	2.37e6	1.79e6	inactive
25	side (GeneID 43300)	1	6.45e5	8.57e5	1.77e6	2.21e6	inactive
26	side (GeneID 43300)	2	2.39e5	2.18e5	2.53e6	2.48e6	inactive
27	side (GeneID 43300)	3	2.27e5	1.60e5	2.22e6	2.91e6	inactive
28	side (GeneID 43300)	4	2.12e5	2.50e5	1.39e6	3.10e6	inactive
29	side (GeneID 43300)	5	2.02e5	2.01e5	2.44e6	2.98e6	inactive
30	CG34021 (GeneID 3885589)	1	5.39e5	7.17e5	1.58e6	1.48e6	inactive
31	CG9068 (GeneID 36817)	1	70989	84619	1.46e6	1.46e6	inactive
32	CG33172 (GeneID 32526)	1	5.13e5	5.49e5	2.00e6	2.42e6	inactive
33	CG3071 (GeneID 31213)	1	82848	98332	1.33e6	7.66e5	inactive
34	CG3071 (GeneID 31213)	2	4.09e5	3.95e5	3.68e5	3.39e5	inactive
35	Dnaaf6 (GeneID 39598)	1	1.58e5	1.77e5	2.00e6	2.36e6	inactive
36	CG10359 (GeneID 38434)	1	1.12e6	7.05e5	1.38e6	1.25e6	inactive
37	CG30384 (GeneID 246584)	1	1.95e5	2.41e5	1.69e6	1.14e6	inactive
38	Rpn1 (GeneID 40174)	1	32801	40170	4.20e5	3.97e5	inactive
39	shot (GeneID 36542)	1	95095	99458	2.07e5	1.13e5	inactive
40	shot (GeneID 36542)	2	3.02e5	3.28e5	4.82e5	5.81e5	inactive
41	shot (GeneID 36542)	3	1.18e6	1.13e6	1.37e6	1.33e6	inactive
42	shot (GeneID 36542)	4	3.61e5	2.00e5	7.80e5	4.51e5	inactive
43	Rga + asRNA:ASTR	1	1.24e5	66103	2.98e6	1.66e6	inactive
44	CG31650 (GeneID 326150)	1	4.47e5	6.10e5	2.11e6	2.01e6	inactive
45	CG31650 (GeneID 326150)	2	4.72e5	4.57e5	1.24e6	1.17e6	inactive
46	CG3294 (GeneID 33677)	1	8.35e5	5.67e5	2.27e6	1.73e6	inactive
47	CG3294 (GeneID 33677)	2	2.52e5	2.88e5	6.56e5	7.21e5	inactive
48	Vps28 (GeneID 47408)	1	8.20e5	9.11e5	1.44e6	1.34e6	inactive
49	CG44325 (GeneID 31831)	1	3.16e5	2.68e5	2.65e6	2.74e6	inactive
50	CG44325 (GeneID 31831)	2	3.30e5	3.11e5	2.30e6	2.25e6	inactive
51	CG9287 (GeneID 34194)	1	3.65e5	3.65e5	2.97e6	2.60e6	inactive
52	CG9287 (GeneID 34194)	2	5.92e5	9.17e5	1.65e6	1.97e6	inactive
53	Ire1 (GeneID 42358)	1	1.72e5	2.10e5	2.83e6	3.36e6	inactive
54	Ire1 (GeneID 42358)	2					inactive
55	Ire1 (GeneID 42358)	3					inactive
56	mRpL37 (GeneID 41293)	1	2.23e5	1.65e5	3.16e6	3.27e6	inactive
57	YL-1 (GeneID 34516)	1	1.62e5	2.71e5	1.41e6	1.00e6	inactive
58	YL-1 (GeneID 34516)	2	6.63e5	8.05e5	6.58e5	7.46e5	inactive

Copied from the list:
CG9287 (GeneID 34194) #2, firefly reporter light, replicate 1 = 5.92e5
asRNA:CR17025 (GeneID 12797896), firefly reporter light, replicate 1 → 4.51e5
Result for CG5758 (GeneID 35083) #3 under “Renilla control light, replicate 2”: 8.92e5
CG31195 (GeneID 46155), Renilla control light, replicate 1: 1.63e5
Rab3-GAP (GeneID 34626) #2, firefly reporter light, replicate 1 → 5.47e5
For “Renilla control light, replicate 2”, shot (GeneID 36542) #3 has 1.33e6
